# The other results are listed elsewhere or left out.
# B1: Langerin K299A/K313A (Homo sapiens), Q9UJ71 (protein)
# chain: STLNAQIPELKSDLEKASALNTKIRALQGSLENMSKLLKRQNDILQVVSQGWKYFKGNFYYFSLIPKTWYSAEQFCVSRNSHLTSVTSESEQEFLYKTAGGLIYWIGLTKAGMEGDWSWVDDTPFNKVQSARFWIPGEPNNAGNNEHCGNIAAPSLQAWNDAPCDATFLFICKRPYVPSEP
# Tests used:
# Experiment in all cases: glycan array binding signal (z-score within array); higher = stronger binding
# Conditions in all cases: glycan notation: IUPAC condensed, linker removed
# Fuc(a1-2)Gal = molecular target: Fuc(a1-2)Gal
# Method in brief: (§1)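 Glycan array binding is given as a within-array Z-score, which can be read as non-binding when negative. The arrays, 3228 of them, came from the Consortium for Functional Glycomics database and were retained only where the protein sequence was available. Z-scores were averaged across arrays of the same protein sequence at different concentrations or buffers and across linkers.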
# Fuc(a1-2)Gal(b1-3)GalNAc = molecular target: Fuc(a1-2)Gal(b1-3)GalNAc
# Method in brief: as §1
# [1] = molecular target: Fuc(a1-2)Gal(b1-3)GalNAc(a1-3)[Fuc(a1-2)]Gal(b1-4)Glc
# Method in brief: as §1
# [2] = molecular target: Fuc(a1-2)Gal(b1-3)GalNAc(a1-3)[Fuc(a1-2)]Gal(b1-4)GlcNAc
# Method in brief: as §1
# [3] = molecular target: Fuc(a1-2)Gal(b1-3)GalNAc(b1-3)Gal
# Method in brief: as §1
# [4] = molecular target: Fuc(a1-2)Gal(b1-3)GalNAc(b1-3)Gal(a1-4)Gal(b1-4)Glc
# Method in brief: as §1
# [5] = molecular target: Fuc(a1-2)Gal(b1-3)GalNAc(b1-4)[Neu5Ac(a2-3)]Gal(b1-4)Glc
# Method in brief: as §1
# Fuc(a1-2)Gal(b1-3)GlcNAc = molecular target: Fuc(a1-2)Gal(b1-3)GlcNAc
# Method in brief: as §1
# [6] = molecular target: Fuc(a1-2)Gal(b1-3)GlcNAc(b1-2)Man(a1-3)[Fuc(a1-2)Gal(b1-3)GlcNAc(b1-2)Man(a1-6)]Man(b1-4)GlcNAc(b1-4)GlcNAc
# Method in brief: as §1
# [7] = molecular target: Fuc(a1-2)Gal(b1-3)GlcNAc(b1-2)Man(a1-3)[Fuc(a1-2)Gal(b1-3)GlcNAc(b1-2)Man(a1-6)]Man(b1-4)GlcNAc(b1-4)[Fuc(a1-6)]GlcNAc
# Method in brief: as §1
# [8] = molecular target: Fuc(a1-2)Gal(b1-3)GlcNAc(b1-3)Gal(b1-4)Glc
# Method in brief: as §1
# [9] = molecular target: Fuc(a1-2)Gal(b1-3)GlcNAc(b1-3)GalNAc
# Method in brief: as §1
# [10] = molecular target: Fuc(a1-2)Gal(b1-3)GlcNAc(b1-3)[Fuc(a1-2)Gal(b1-3)GlcNAc(b1-6)]GalNAc
# Method in brief: as §1
# [11] = molecular target: Fuc(a1-2)Gal(b1-3)GlcNAc(b1-3)[Gal(b1-4)GlcNAc(b1-6)]Gal(b1-4)Glc
# Method in brief: as §1
# [12] = molecular target: Fuc(a1-2)Gal(b1-3)GlcNAc(b1-3)[Neu5Ac(a2-6)Gal(b1-4)GlcNAc(b1-6)]Gal(b1-4)Glc
# Method in brief: as §1
# [13] = molecular target: Fuc(a1-2)Gal(b1-3)GlcNAc6S
# Method in brief: as §1
# [14] = molecular target: Fuc(a1-2)Gal(b1-3)[Fuc(a1-4)]GlcNAc
# Method in brief: as §1
# [15] = molecular target: Fuc(a1-2)Gal(b1-3)[Fuc(a1-4)]GlcNAc(b1-2)Man(a1-3)[Fuc(a1-2)Gal(b1-3)[Fuc(a1-4)]GlcNAc(b1-2)Man(a1-3)]Man(b1-4)GlcNAc(b1-4)GlcNAc
# Method in brief: as §1
# [16] = molecular target: Fuc(a1-2)Gal(b1-3)[Fuc(a1-4)]GlcNAc(b1-2)Man(a1-3)[Fuc(a1-2)Gal(b1-3)[Fuc(a1-4)]GlcNAc(b1-2)Man(a1-6)]Man(b1-4)GlcNAc(b1-4)[Fuc(a1-6)]GlcNAc(b1-4)[Fuc(a1-6)]GlcNAc
# Method in brief: as §1
# [17] = molecular target: Fuc(a1-2)Gal(b1-3)[Fuc(a1-4)]GlcNAc(b1-3)[Fuc(a1-3)[Gal(b1-4)]GlcNAc(b1-6)]Gal(b1-4)Glc
# Method in brief: as §1
# [18] = molecular target: Fuc(a1-2)Gal(b1-3)[Fuc(a1-4)]GlcNAc(b1-3)[Gal(b1-4)GlcNAc(b1-6)]Gal(b1-4)Glc
# Method in brief: as §1
# [19] = molecular target: Fuc(a1-2)Gal(b1-4)Fuc(a1-3)]GlcNAc(b1-2)Man(a1-3)[Fuc(a1-2)Gal(b1-4)[Fuc(a1-3)]GlcNAc(b1-2)Man(a1-6)]Man(b1-4)GlcNAc(b1-4)GlcNAc
# Method in brief: as §1
# Fuc(a1-2)Gal(b1-4)Glc = molecular target: Fuc(a1-2)Gal(b1-4)Glc
# Method in brief: as §1
# Fuc(a1-2)Gal(b1-4)Glc6S = molecular target: Fuc(a1-2)Gal(b1-4)Glc6S
# Method in brief: as §1
# Fuc(a1-2)Gal(b1-4)GlcNAc = molecular target: Fuc(a1-2)Gal(b1-4)GlcNAc
# Method in brief: as §1
# [20] = molecular target: Fuc(a1-2)Gal(b1-4)GlcNAc(b1-2)Man
# Method in brief: as §1
# [21] = molecular target: Fuc(a1-2)Gal(b1-4)GlcNAc(b1-2)Man(a1-3)[Fuc(a1-2)Gal(b1-4)GlcNAc(b1-2)Man(a1-6)]Man(b1-4)GlcNAc(b1-4)GlcNAc
# Method in brief: as §1
# [22] = molecular target: Fuc(a1-2)Gal(b1-4)GlcNAc(b1-2)Man(a1-3)[Fuc(a1-2)Gal(b1-4)GlcNAc(b1-2)Man(a1-6)]Man(b1-4)GlcNAc(b1-4)[Fuc(a1-6)]GlcNAc
# Method in brief: as §1
# [23] = molecular target: Fuc(a1-2)Gal(b1-4)GlcNAc(b1-2)[Fuc(a1-2)Gal(b1-4)GlcNAc(b1-4)]Man(a1-3)[Fuc(a1-2)Gal(b1-4)GlcNAc(b1-2)Man(a1-6)]Man(b1-4)GlcNAc(b1-4)GlcNAc
# Method in brief: as §1
# [24] = molecular target: Fuc(a1-2)Gal(b1-4)GlcNAc(b1-3)Gal(b1-4)GlcNAc
# Method in brief: as §1
binder,measurement,setting,value
B1,glycan array binding signal (z-score),Fuc(a1-2)Gal,-0.225
same,glycan array binding signal (z-score),Fuc(a1-2)Gal(b1-3)GalNAc,-0.554
same,glycan array binding signal (z-score),[1],-0.167
same,glycan array binding signal (z-score),[2],-0.954
same,glycan array binding signal (z-score),[3],0.181
same,glycan array binding signal (z-score),[4],-0.563
same,glycan array binding signal (z-score),[5],-0.461
same,glycan array binding signal (z-score),Fuc(a1-2)Gal(b1-3)GlcNAc,-0.849
same,glycan array binding signal (z-score),[6],0.278
same,glycan array binding signal (z-score),[7],2.68
same,glycan array binding signal (z-score),[8],-0.768
same,glycan array binding signal (z-score),[9],0.103
same,glycan array binding signal (z-score),[10],0.732
same,glycan array binding signal (z-score),[11],-0.197
same,glycan array binding signal (z-score),[12],0.388
same,glycan array binding signal (z-score),[13],-0.062
same,glycan array binding signal (z-score),[14],-0.416
same,glycan array binding signal (z-score),[15],1.67
same,glycan array binding signal (z-score),[16],0.903
same,glycan array binding signal (z-score),[17],-0.457
same,glycan array binding signal (z-score),[18],-1.07
same,glycan array binding signal (z-score),[19],-0.126
same,glycan array binding signal (z-score),Fuc(a1-2)Gal(b1-4)Glc,0.61
same,glycan array binding signal (z-score),Fuc(a1-2)Gal(b1-4)Glc6S,-0.78
same,glycan array binding signal (z-score),Fuc(a1-2)Gal(b1-4)GlcNAc,-0.197
same,glycan array binding signal (z-score),[20],-0.127
same,glycan array binding signal (z-score),[21],0.446
same,glycan array binding signal (z-score),[22],-0.686
same,glycan array binding signal (z-score),[23],2.71
same,glycan array binding signal (z-score),[24],0.077

# Reprinted from the entries so far (two entries):
binder,measurement,setting,value
B1,glycan array binding signal (z-score),[16],0.903
same,glycan array binding signal (z-score),[17],-0.457
